Measurements published in PubChem BioAssay AID1688 (National Center for Advancing Translational Sciences (NCATS), 2009).
Among all 220,000 compounds or so, about 2,400 (1.1%) were called active. This list was built around the results that the source calls inconclusive (neither active nor inactive); the mix of calls is not that of the screen. The call rests on the fitted dose curve; in most records, active means well fitted inhibition curve with a large enough effect; inconclusive means small, poorly fitted or top-dose-only effect, or effect the other way; inactive means no such curve, though single readings can be large or run the other way. Potencies beside an inconclusive call are fits to weak or partial responses and may not hold up.

assay: qHTS Multiplex Assay to Identify Dual Action Probes in a Cell Model of Huntington: Aggregate Formation (GFP); details: PC12 HttQ103-GFP aggregates, Acumen cytometry, 40 h; activity change, negative = inhibition: at 46.1 µM (top of the series) unless noted; further: nearly all actives have a fitted effect of over 60% in size
How it was run: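 Using laser scanning cytometry, GFP-positive aggregates were counted after lysis of PC12 cells induced with 100 nM tebufenozide to express HTT exon 1 Q103–GFP. Compounds were tested in titration.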
On the % scale 0 is the no-effect control and ±100 the full control effect; potency means the concentration at half of the fitted maximal effect.

| Compound | Potency | activity change, negative = inhibition |
| --- | --- | --- |
| O=C1NN=C(c2ccccc2)CC1c1ccc(Cl)cc1Cl (stereo not drawn) | inconclusive: 0.794 µM [activator, single point] |  |
| CCOC(=O)c1sc(NC(=O)C2CC=CCC2C(=O)O)nc1C (stereo not drawn) |  | inactive: -1.83% |
| CC(C)c1ccc2[nH]c(O)c(N=NC(=O)c3cccc(S(=O)(=O)N4CCCCC4)c3)c2c1 | inconclusive: 20 µM [inhibitor, single point] |  |
| Cc1ccc(C)n1-c1ccc(N2CCOCC2)cc1 | inconclusive: 10 µM [activator, partial curve] |  |
| CCCCNC(=S)N1CCn2cccc2C1c1ccc(F)cc1 (stereo not drawn) | inconclusive: 35.5 µM [inhibitor, single point] |  |
| CC1CC(C)(C)N2C(=O)C(=C(C#N)C#N)c3cccc1c32 (stereo not drawn) |  | inactive: -5.75% [at 9.22 µM] |
| O=C1CC(SC(=Nc2ccccc2)Nc2ccccc2)C(=O)N1c1cccc(Cl)c1 (stereo not drawn) | inconclusive: 35.5 µM [inhibitor, single point] |  |
| COc1ccc(-c2cc(=O)n(CCC#N)[nH]2)cc1 | inconclusive: 14.1 µM [inhibitor, single point] |  |
| O=c1cc(N2CCCCC2)c(-c2ccccc2)n[nH]1 |  | inactive: 1.85% |
| Cc1ccc(N2C(=O)CS/C2=C(\C(Cl)=C(Cl)Cl)[N+](=O)[O-])cc1 | inconclusive: 14.1 µM [activator, partial curve, poor fit] |  |
| O=C(N/N=C\c1c(O)ccc2ccccc12)c1ccc(S(=O)(=O)N2CCCCC2)cc1 | inconclusive: 1.41 µM [inhibitor, full curve] |  |
| Oc1ccccc1-c1nc2cnccn2c1Nc1ccc2c(c1)OCCO2 |  | inactive: -2.38% |
| O=C1C2CCCCC2C(=O)N1c1ccc(NC2CCN(Cc3ccccc3)CC2)c([N+](=O)[O-])c1 (stereo not drawn) | inconclusive: 1.12 µM [activator, full curve] |  |
| CS(=O)(=O)N(CC(=O)NCCSCc1c(F)cccc1Cl)c1cccc([N+](=O)[O-])c1 |  | inactive: 9.76% [at 9.22 µM] |
| CCc1nc(Sc2nnnn2-c2ccccc2)c2c3c(sc2n1)CCCC3 | inconclusive: 35.5 µM [inhibitor, single point] |  |
| COc1cc(CC(=O)OCC(=O)c2ccc3c(c2)OCCO3)cc(OC)c1OC | inconclusive: 5.62 µM [inhibitor, single point] |  |
| O=C(c1ccccc1)c1cc([N+](=O)[O-])ccc1N1CCCC1 | inconclusive: 35.5 µM [activator, single point] |  |
| Cc1csc2nc(CNS(=O)(=O)c3ccc(-c4ccccc4)cc3)cn12 | inconclusive: 14.1 µM [inhibitor, partial curve] |  |
| c1ccc(CCc2ccccc2-c2nc(-c3ccccn3)no2)cc1 | inconclusive: 11.2 µM [inhibitor, partial curve] |  |
| OC(CNCC1CCCO1)Cn1c2ccc(Br)cc2c2cc(Br)ccc21 (stereo not drawn) | inconclusive: 35.5 µM [inhibitor, single point] |  |
| CC(/C=C/c1ccc(N(C)C)cc1)=N/N=C1/NC(=O)CC(C(=O)Nc2ccc(Cl)cc2)S1 (stereo not drawn) | inconclusive: 35.5 µM [inhibitor, single point] |  |
| Cc1ccc(S(=O)(=O)c2cccc(S(=O)(=O)N3CCCC3)c2)cc1S(=O)(=O)N1CCCC1 | inconclusive: 14.1 µM [inhibitor, single point] |  |
| Cc1cc(OCCN2CCCCCC2)ccc1[N+](=O)[O-] | inconclusive: 35.5 µM [activator, partial curve] |  |

4 neighbouring entries from above, for reference:

| Compound | Potency | activity change, negative = inhibition |
| --- | --- | --- |
| O=C1CC(SC(=Nc2ccccc2)Nc2ccccc2)C(=O)N1c1cccc(Cl)c1 (stereo not drawn) | inconclusive: 35.5 µM [inhibitor, single point] |  |
| COc1ccc(-c2cc(=O)n(CCC#N)[nH]2)cc1 | inconclusive: 14.1 µM [inhibitor, single point] |  |
| O=c1cc(N2CCCCC2)c(-c2ccccc2)n[nH]1 |  | inactive: 1.85% |
| Cc1ccc(N2C(=O)CS/C2=C(\C(Cl)=C(Cl)Cl)[N+](=O)[O-])cc1 | inconclusive: 14.1 µM [activator, partial curve, poor fit] |  |

Carrying on.

| Compound | Potency | activity change, negative = inhibition |
| --- | --- | --- |
| COc1cc(/C=C(/NC(=O)c2ccccc2)C(=O)Nc2ccc(O)cc2)c([N+](=O)[O-])cc1OC | inconclusive: 15.8 µM [activator, single point] |  |
| O=C(Nc1ccccc1F)c1ccc(Cn2cc(Br)cn2)cc1 | inconclusive: 35.5 µM [inhibitor, single point] |  |
| COc1ccc(C(=O)NCC(=O)N/N=C/c2ccc([N+](=O)[O-])s2)cc1OC | inconclusive: 25.1 µM [inhibitor, single point] |  |
| O=C(CNC(=O)c1ccccc1)OCc1nc2ccccc2s1 | inconclusive: 4.47 µM [inhibitor, single point] |  |
| O=C(NC1CC1)C1=C[C@@H](c2ccc3c(c2)OCO3)C[C@@H](OCc2ccc(CO)cc2)O1 |  | inactive: 4.45% [at 9.22 µM] |
| Cc1cccc(-c2c3c(=O)n(C)c(=O)n(C)c3cn2C(C)(C)C)c1 |  | inactive: 13.3% |
| Cc1ccc2[nH]c(=O)c(C(c3nnnn3C3CCCC3)N3CCCc4ccccc43)cc2c1 (stereo not drawn) | active: 35.5 µM |  |
| CC(C)N(C)C(=O)C(=O)c1cccn1-c1cccc(Cl)c1C#N |  | inactive: 10.8% [at 9.22 µM] |
| CN(C)c1nc(SCC(=O)Nc2ccccc2)nc(N2CCOCC2)n1 |  | inactive: 7.2% |
| Cc1[nH]c2ccccc2c1C1(O)C(=O)N(Cc2ccc3c(c2)OCO3)c2ccccc21 (stereo not drawn) | inconclusive: 12.6 µM [activator, single point] |  |
| COc1ccc(N2C(C(C)=O)=NN(c3ccccc3)C2c2cccs2)cc1 (stereo not drawn) | inconclusive: 25.1 µM [inhibitor, single point] |  |
| OC(COCc1ccc2c(c1)OCO2)CN1CCC(Cc2ccccc2)CC1 (stereo not drawn) |  | inactive: -0.197% |
| C=CCn1cc(/C=C2/NC(=O)NC2=O)c2ccccc21 |  | inactive: -6.79% [at 9.22 µM] |
| NC(=O)n1c(O)c(C(=O)c2cccs2)c2cc(Cl)ccc21 | active: 11.2 µM |  |
| Cc1cc(C)c2ccc3c(C)c(C)nc3c2[nH]1 | inconclusive: 28.2 µM [inhibitor, single point] |  |
| COc1cccc(-c2nc(-c3ccc(Br)o3)no2)c1 |  | inactive: -21.7% [at 9.22 µM] |
| O=C(CCl)N1N=C(c2ccco2)CC1c1cccs1 (stereo not drawn) | active: 11.2 µM |  |
| CCN(CC)CCNC(=O)COc1ccc(Cl)cc1Cl |  | inactive: -17.4% |
| CN(C)CCNC(=O)/C(=C/c1ccc(-c2ccc(Cl)cc2)o1)NC(=O)c1ccccc1 | active: 3.16 µM |  |
| O=C(NCc1ccccc1)c1ccc(C(=O)N(C2CCCCC2)C2CCCCC2)cc1 | inconclusive: 25.1 µM [inhibitor, single point] |  |
| O=C(Nc1nccs1)c1c(O)c2cccc3c2n(c1=O)CCC3 | inconclusive: 3.98 µM [inhibitor, full curve, poor fit] |  |
| Cc1ccc(S(=O)(=O)Nc2cc(C)c(O)cc2C)cc1 |  | inactive: 23.1% |
| CC1Sc2n(c3ccccc3[n+]2C)N=C1c1ccccc1 (stereo not drawn) | inconclusive: 12.6 µM [inhibitor, partial curve] |  |

| Compound | Potency | activity change, negative = inhibition |
| --- | --- | --- |
| Oc1c(N=NC(=S)Nc2ccccc2F)c2ccccc2n1Cc1ccc(Cl)cc1 | inconclusive: 7.94 µM [inhibitor, partial curve] |  |
| O=C1C(N2CCOCC2)=C(n2nnc3ccccc32)C(=O)c2ccccc21 | inconclusive: 3.98 µM [inhibitor, partial curve] |  |
| O=C(CSc1ccc(Cl)cc1)Nc1ccc(N2CCN(C(=O)c3ccco3)CC2)cc1 | inconclusive: 12.6 µM [inhibitor, single point] |  |
| c1ccc2oc(SCc3cn4ccccc4n3)nc2c1 |  | inactive: -26.6% |
| CCOc1cc(/C=N/NC(=O)c2nn(C)cc2Br)ccc1OCc1ccccc1Cl | inconclusive: 8.91 µM [activator, partial curve] |  |
| CCN(Cc1ccncc1)S(=O)(=O)c1ccc(C(C)=O)cc1 | inconclusive: 11.2 µM [inhibitor, partial curve] |  |
| O=C(COc1ccccc1)Nc1cc(C(F)(F)F)ccc1N1CCCC1 | inconclusive: 4.47 µM [inhibitor, single point] |  |
| C=CCNc1nc(Nc2ccc([N+](=O)[O-])cc2)nc(N2CCCC2)n1 | inconclusive: 15.8 µM [inhibitor, single point] |  |
| O=C1CSc2ccc(C(=O)Nc3cccc(S(=O)(=O)Nc4ccc(Br)cc4)c3)cc2N1 | active: 7.94 µM |  |
| COc1cc(/C=C/C(C)=O)cc(OC)c1OC | inconclusive: 8.91 µM [activator, partial curve] |  |
| Cc1ccc(-n2[nH]c(C)c(/C=N/n3c(C)nc4ccccc4c3=O)c2=O)cc1 | inconclusive: 14.1 µM [inhibitor, single point] |  |
| CCOC(=O)c1c(C)[nH]c2c1-c1ccccc1C(=O)C2=O | active: 5.01 µM |  |
| CCn1c(=O)c(C(=O)CN2CCN(S(=O)(=O)c3cc(C)ccc3C)CC2)c(N)n(Cc2ccccc2)c1=O | inconclusive: 3.55 µM [inhibitor, partial curve, poor fit] |  |
| N/C(Cn1cncn1)=N\OC(=O)c1ccc(Cl)cc1 | inconclusive: 35.5 µM [activator, single point] |  |
| COc1ccc(S(=O)(=O)Cc2ccc(C(=O)N3CCN(c4ccc(Cl)cc4)CC3)o2)cc1 | inconclusive: 35.5 µM [inhibitor, single point] |  |
| S=C(NCc1ccco1)Nc1ccc(Cl)c(Cl)c1 | inconclusive: 10 µM [inhibitor, partial curve] |  |
| COc1ccc(Br)c(OC)c1C(=O)NC(=O)Nc1nc(C)cc(C)n1 |  | inactive: 7.89% [at 9.22 µM] |
| COc1cccc(NC(=O)c2cc(CN3C(=O)c4ccccc4C3=O)ccc2OC)c1 | inconclusive: 7.94 µM [activator, partial curve] |  |
| COc1cc(OC)cc(C(=O)NC(=S)NCCc2ccccc2)c1 |  | inactive: -16.7% |
| O=C(c1ccc(S(=O)(=O)Nc2ccc(F)cc2)cc1)N1CCN(c2ccccn2)CC1 | active: 14.1 µM |  |
| Cc1ccccc1Nc1ncnc2c1cnn2-c1ccccc1 | inconclusive: 7.94 µM [inhibitor, partial curve] |  |
| Cc1sc2ncnc(NCC3COc4ccccc4O3)c2c1C (stereo not drawn) | inconclusive: 17.8 µM [inhibitor, partial curve, poor fit] |  |
